Measured values as given in patent US20210353639A1, “MAST1 AND USES FOR DIAGNOSING AND TREATING CANCER” (EMORY UNIVERSITY, priority 2018, published 2021).
Entries after “also recorded” stand apart in the source; their conditions may differ. At least one structure is not confirmed: it was looked up by name or label, or the drawing left a doubt.

Amino acid sequences for entries named in this document (tags omitted). A change or cut given only in a name is not applied to a line headed by its entry.
UniProt Q9Y2H9: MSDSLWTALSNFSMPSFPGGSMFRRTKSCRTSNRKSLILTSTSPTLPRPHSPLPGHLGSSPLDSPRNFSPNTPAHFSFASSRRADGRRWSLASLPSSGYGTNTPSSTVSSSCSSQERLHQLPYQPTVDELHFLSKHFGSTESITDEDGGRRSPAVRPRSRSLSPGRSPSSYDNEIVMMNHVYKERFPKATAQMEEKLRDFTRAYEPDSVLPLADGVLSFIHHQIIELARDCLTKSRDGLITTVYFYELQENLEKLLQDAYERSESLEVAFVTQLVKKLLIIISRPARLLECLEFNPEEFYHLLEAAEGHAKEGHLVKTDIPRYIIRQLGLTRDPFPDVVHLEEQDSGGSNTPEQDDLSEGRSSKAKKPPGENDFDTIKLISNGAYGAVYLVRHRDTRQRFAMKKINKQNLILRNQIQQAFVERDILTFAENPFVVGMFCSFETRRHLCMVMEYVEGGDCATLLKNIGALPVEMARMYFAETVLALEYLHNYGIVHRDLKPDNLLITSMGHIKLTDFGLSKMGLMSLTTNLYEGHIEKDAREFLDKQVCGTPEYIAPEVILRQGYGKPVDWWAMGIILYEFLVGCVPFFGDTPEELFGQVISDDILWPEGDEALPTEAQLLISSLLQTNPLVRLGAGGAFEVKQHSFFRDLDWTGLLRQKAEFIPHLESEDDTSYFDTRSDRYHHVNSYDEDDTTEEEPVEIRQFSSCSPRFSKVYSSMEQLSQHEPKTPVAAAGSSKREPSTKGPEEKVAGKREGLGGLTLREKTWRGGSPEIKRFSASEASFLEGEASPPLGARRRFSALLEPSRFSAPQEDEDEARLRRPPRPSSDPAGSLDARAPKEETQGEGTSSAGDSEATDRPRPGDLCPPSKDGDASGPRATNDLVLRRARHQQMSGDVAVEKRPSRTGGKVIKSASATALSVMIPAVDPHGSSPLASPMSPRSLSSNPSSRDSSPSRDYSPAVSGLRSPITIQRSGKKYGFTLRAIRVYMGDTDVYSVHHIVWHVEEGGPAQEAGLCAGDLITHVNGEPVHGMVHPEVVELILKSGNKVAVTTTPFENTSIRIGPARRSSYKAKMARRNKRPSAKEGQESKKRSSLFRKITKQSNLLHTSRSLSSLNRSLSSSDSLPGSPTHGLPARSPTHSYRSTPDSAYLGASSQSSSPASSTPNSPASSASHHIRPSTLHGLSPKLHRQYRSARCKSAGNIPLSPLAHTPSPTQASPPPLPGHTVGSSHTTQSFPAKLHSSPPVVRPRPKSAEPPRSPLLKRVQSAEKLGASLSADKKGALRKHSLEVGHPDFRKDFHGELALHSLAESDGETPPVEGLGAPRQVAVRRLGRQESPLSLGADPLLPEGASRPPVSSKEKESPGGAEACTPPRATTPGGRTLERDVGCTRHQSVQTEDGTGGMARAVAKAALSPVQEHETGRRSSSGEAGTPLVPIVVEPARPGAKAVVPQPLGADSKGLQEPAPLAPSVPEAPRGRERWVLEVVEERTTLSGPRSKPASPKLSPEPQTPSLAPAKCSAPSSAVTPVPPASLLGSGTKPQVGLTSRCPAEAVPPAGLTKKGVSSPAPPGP

What was measured:
MEK1 [1] = assay: MEK1 phosphorylation with lestaurtinib, cisplatin and the combination; type: cell-based, human; conditions: lestaurtinib in combination with cisplatin
cells = assay: Sensitization by lestaurtinib to cisplatin versus other DNA damaging or chemotherapy agents; type: cell-based
[2] = test system: HNSCC, lung cancer, and ovarian cancer PDX; assay: Tumor growth and Ki-67 in cisR HNSCC, lung cancer and ovarian cancer PDX mice; type: in vivo; conditions: combination of lestaurtinib and cisplatin compared to single agent treatment
MEK1 [3] = assay: MEK1 phosphorylation in PDX tumor lysates (phospho-S217/S221 MEK immunoblotting); set-up: species or system mice; conditions: mouse, in vivo
Lung PDX (Pt-9 tumor) = assay: Tumor growth in lung PDX mice (Pt-9 tumor), lestaurtinib or trametinib with cisplatin; type: in vivo; conditions: in combination with cisplatin (5 mg/kg i.p. twice a week); lestaurtinib 20 mg/kg i.p. 5 times a week, trametinib 1 mg/kg oral daily
MAST1 = MAST1 (Homo sapiens, UniProt Q9Y2H9); assay: MAST1 in vitro kinase assay (purified GST-MAST1, ADP-Glo); type: biochemical; set-up: GST; made in house; host or cells: 293T; conditions: 10 μM drugs incubated with purified GST-MAST1
Experimental: GST-MAST1 variants were enriched from 293T and kinase activity was assessed by ADP-Glo Kinase assay using myelin basic protein (MBP) as a substrate.
10 μM drugs were incubated with purified GST-MAST1 and applied to the in vitro kinase assay.
FIG. 7G show data on the effect of lestaurtinib on MAST1 activity at a range of ATP concentrations.

SMILES	MEK activation (MEK1 [1])	specificity of sensitization (cisplatin vs other agents) (cells)	PDX tumor growth and tumor cell proliferation [2]	MEK1 phosphorylation in PDX tumors (MEK1 [3])	PDX tumor growth and proliferation (Lung PDX (Pt-9 tumor))	MAST1 activity in in vitro MAST1 kinase assay (MAST1)
C[C@]12O[C@H](C[C@]1(O)CO)n1c3ccccc3c3c4c(c5c6ccccc6n2c5c31)CNC4=O [lestaurtinib, 7-hydroxy-7-(hydroxymethyl)-8-methyl-5,6,7,8,13,14-hexahydro-15H-16-oxa-4b,8a,14-triaza-5,8-methanodibenzo[b,h]cycloocta[jkl]cyclopenta[e]-as-indacen-15-one]	decreased MEK activation	only sensitized cells to cisplatin but not to other DNA damaging agents or chemotherapy agents	significantly reduced PDX tumor growth and tumor cell proliferation	significantly attenuated	slightly greater synergistic effect than trametinib; also recorded: sensitizes cancer cells to cisplatin	–
CCN(CC)CCNC(=O)c1c(C)[nH]c(/C=C2\C(=O)Nc3ccc(F)cc32)c1C [sunitinib, 5-(5-fluoro-2-oxo-1,2-dihydroindolylidenemethyl)-2,4-dimethyl-1H-pyrrole-3-carboxylic acid (2-diethylaminoethyl)amide]	–	–	–	–	–	inhibited MAST1 activity in vitro
